No constants are given. Whether binding was seen depends on the method and setting.
Key:
Assay in all cases: ITC; both purified
[1] = target: Human Scribble (SCRIB) PDZ2 domain (860-950) (human) (UniProt Q14160)
[2] = target: Human Scribble (SCRIB) PDZ4 domain (1099-1203) (human) (UniProt Q14160)
[3] = target: Human Scribble (SCRIB) PDZ1 domain (728-815) (human) (UniProt Q14160)

Amino acid sequences for entries named in this document (tags omitted). Residues count along the entry.
Human Scribble (SCRIB) PDZ1 domain (728-815) (Q14160, residues 728-815): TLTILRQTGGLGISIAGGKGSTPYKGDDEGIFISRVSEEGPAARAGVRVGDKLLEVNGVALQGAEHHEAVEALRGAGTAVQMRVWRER
Human Scribble (SCRIB) PDZ2 domain (860-950) (Q14160, residues 860-950): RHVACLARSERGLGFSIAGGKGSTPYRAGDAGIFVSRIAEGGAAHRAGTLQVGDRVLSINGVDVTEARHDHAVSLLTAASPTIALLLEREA
Human Scribble (SCRIB) PDZ4 domain (1099-1203) (Q14160, residues 1099-1203): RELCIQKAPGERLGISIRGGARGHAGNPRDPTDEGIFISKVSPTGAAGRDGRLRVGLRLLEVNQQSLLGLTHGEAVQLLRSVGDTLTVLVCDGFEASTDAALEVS

Measured: binding

B1: TBEV NS5_CTN peptide (C-terminal PBM of NS5) (peptide)
peptide: LRLESSII
no binding: all assays above

— publication PMC9317960 (Biochemical Journal, 2022)
